Results on 2 substances are retold here after PMC4773256.

Chains of the proteins cited; added tags and fusions are not shown.
UniProt O15169: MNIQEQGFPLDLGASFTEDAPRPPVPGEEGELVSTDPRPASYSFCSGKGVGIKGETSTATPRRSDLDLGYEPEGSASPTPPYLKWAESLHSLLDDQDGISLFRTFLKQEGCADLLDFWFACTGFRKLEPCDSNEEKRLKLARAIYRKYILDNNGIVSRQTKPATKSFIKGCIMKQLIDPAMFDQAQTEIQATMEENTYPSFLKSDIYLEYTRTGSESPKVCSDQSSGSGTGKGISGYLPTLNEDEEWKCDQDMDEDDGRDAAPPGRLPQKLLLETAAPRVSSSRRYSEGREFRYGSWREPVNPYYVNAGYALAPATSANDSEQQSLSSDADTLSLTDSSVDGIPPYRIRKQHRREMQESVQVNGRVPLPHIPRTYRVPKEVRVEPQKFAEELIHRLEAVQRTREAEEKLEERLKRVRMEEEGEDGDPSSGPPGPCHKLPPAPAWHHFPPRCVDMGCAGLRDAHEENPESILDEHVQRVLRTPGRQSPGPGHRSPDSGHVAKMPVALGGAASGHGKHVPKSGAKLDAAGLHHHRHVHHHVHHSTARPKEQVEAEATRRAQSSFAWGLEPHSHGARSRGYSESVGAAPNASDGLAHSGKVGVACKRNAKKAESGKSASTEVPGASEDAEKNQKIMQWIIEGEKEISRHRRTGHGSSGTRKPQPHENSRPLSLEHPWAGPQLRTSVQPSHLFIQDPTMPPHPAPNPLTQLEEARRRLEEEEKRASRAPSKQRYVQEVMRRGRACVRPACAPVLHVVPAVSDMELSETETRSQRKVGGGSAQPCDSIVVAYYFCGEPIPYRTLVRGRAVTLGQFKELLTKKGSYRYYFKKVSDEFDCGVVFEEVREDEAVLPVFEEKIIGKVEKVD
UniProt O95271: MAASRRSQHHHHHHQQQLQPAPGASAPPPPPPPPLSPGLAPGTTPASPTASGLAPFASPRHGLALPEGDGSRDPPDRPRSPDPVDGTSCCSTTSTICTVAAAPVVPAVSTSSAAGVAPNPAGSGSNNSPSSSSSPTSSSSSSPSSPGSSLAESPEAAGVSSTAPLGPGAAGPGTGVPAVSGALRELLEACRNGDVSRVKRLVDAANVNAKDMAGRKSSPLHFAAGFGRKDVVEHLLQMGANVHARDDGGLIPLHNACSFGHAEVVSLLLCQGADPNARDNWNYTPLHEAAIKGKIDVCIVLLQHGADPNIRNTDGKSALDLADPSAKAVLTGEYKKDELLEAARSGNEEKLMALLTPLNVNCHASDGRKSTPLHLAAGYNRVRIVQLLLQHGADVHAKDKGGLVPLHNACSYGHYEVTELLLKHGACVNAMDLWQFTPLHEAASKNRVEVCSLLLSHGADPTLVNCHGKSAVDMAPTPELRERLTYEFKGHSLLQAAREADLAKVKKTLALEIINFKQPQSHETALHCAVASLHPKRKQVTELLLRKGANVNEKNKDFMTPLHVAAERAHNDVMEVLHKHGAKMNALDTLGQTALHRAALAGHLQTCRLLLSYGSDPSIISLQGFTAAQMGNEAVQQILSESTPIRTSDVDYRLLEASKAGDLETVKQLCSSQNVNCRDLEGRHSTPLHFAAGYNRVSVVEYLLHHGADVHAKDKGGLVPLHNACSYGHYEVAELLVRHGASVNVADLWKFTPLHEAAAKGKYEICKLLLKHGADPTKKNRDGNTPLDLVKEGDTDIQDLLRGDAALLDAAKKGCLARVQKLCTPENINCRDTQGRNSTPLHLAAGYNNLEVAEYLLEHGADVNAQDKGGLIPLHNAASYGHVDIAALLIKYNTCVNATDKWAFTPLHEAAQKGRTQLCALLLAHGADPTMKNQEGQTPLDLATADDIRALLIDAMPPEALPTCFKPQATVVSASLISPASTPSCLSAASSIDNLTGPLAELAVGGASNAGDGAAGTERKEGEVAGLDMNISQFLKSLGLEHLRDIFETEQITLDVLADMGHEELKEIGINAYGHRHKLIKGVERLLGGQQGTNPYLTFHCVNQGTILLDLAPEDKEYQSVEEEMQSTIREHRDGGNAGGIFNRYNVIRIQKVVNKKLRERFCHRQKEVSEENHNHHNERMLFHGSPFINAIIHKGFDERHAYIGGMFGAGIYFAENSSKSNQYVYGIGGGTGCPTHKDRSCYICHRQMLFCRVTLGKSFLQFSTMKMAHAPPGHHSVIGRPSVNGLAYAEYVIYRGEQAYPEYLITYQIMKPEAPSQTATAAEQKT
UniProt P35222: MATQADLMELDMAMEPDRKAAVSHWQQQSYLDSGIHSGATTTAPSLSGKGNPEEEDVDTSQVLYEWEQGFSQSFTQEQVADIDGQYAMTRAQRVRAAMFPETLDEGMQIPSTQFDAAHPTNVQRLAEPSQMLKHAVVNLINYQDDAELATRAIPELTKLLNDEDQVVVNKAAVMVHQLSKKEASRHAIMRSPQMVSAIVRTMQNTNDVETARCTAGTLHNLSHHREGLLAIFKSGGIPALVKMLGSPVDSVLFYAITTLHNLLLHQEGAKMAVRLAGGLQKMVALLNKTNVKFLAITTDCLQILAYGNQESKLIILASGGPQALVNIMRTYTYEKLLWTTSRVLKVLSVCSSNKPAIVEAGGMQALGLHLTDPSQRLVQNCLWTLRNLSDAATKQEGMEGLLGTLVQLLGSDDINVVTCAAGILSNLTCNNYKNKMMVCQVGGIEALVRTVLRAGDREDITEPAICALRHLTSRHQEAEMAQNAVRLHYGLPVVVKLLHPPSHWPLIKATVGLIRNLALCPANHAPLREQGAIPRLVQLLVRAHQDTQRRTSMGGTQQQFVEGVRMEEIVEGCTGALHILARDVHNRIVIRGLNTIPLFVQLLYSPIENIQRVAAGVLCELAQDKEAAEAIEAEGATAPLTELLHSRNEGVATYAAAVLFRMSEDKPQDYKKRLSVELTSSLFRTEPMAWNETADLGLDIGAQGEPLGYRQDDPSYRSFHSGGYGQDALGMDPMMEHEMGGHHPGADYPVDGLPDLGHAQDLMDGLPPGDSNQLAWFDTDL

Experiment [1] concerns the target axin (human (endogenous in HEK293T)) (UniProt O15169). Nature of the experiment: co-IP; HEK293T cells untreated (control); IP and analysis as in Fig 3 (axin antibody, western blot). (In western blotting, separated proteins are transferred to a membrane and probed.)
The target is the same in experiment [2]. Nature of the experiment: co-IP; HEK293T cells treated 6 h or 24 h with 5 μM G007-LK; IP and analysis as in Fig 3 (axin antibody, western blot).
The target of experiment [3] is axin (human (endogenous in SW480)) (UniProt O15169). Kind of experiment: co-IP; SW480 cells untreated (control); also 6 h 20 μM MG132 alone; 1 mg lysate in IP lysis buffer, axin antibody overnight, protein-G agarose, western blot.
The target is the same in experiment [4]. Kind of experiment: co-IP; SW480 cells treated 6 h or 24 h with TNKSi (5 μM G007-LK; also 2.5 μM XAV939); 1 mg lysate in IP lysis buffer, axin antibody overnight, protein-G agarose, western blot.

No constants are given. Whether binding was seen depends on the method and setting. In cells and extracts the contact can be indirect. Some binding calls cover weakened binding; strength is not graded here.

Turning to “tankyrase 1 (from UniProt O95271 1-1327) (enzyme)”, the binding entry was “binds weakly” in experiment [1], “binds” in experiment [2], “binds weakly” in experiment [3] and “binds” in experiment [4].
For β-catenin (from UniProt P35222 1-781), the binding result in experiment [2] and in experiment [4] was “binds” throughout.
